Test results taken from article PMC4578947.

T1: RAB-10(Q68L), fusion to the DNA-binding domain of LexA (bait) (C. elegans) (UniProt Q94148)
T1 sequence: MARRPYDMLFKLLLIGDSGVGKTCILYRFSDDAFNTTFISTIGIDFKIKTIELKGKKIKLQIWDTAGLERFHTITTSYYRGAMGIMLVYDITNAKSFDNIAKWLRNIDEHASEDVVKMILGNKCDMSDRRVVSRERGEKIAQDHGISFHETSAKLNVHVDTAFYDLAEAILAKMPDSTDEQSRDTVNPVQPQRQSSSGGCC

B1: HA-tagged RAB-10(Q68L) (protein, UniProt Q94148 1-201)
chain: T1 sequence

Target: full length GST-AMPH-1 (C. elegans)
Test: pull-down; Glutathione beads loaded with recombinant GST-AMPH-1 incubated with in vitro-translated HA-RAB-10(Q68L) and/or FLAG-TBC-2; western blot with anti-HA and anti-FLAG; only the target purified

binding | Molecule
binds | B1

Target: T1, RAB-10(Q68L), fusion to the DNA-binding domain of LexA (bait) (C. elegans)
Test: two-hybrid; DupLEX-A system, yeast EGY48; bait fused to LexA DNA-binding domain, prey fused to B42 activation domain; LEU2 growth assay (and β-galactosidase reporter), galactose/raffinose, 30°C, 3 days

binding | Molecule
no binding | TBC-2 (QRNNE 288–292 AAAAA) (C. elegans)
binds | Full-length TBC-2, fusion to the B42 transcriptional activation domain (prey) (from UniProt Q23419)
binds | TBC-2(P153A), fusion to the B42 transcriptional activation domain (prey) (C. elegans)
no binding | TBC-2 with alanine substitutions at positions aa283-287 (C. elegans)
binds | TBC-2(P150A), fusion to the B42 transcriptional activation domain (prey) (C. elegans)
no binding | TBC-2 with alanine substitutions at positions aa294-298 (C. elegans)
binds | TBC-2(R155A), fusion to the B42 transcriptional activation domain (prey) (C. elegans)

Target: AMPH-1 SH3 domain (bait) (C. elegans) (UniProt Q21004)
Test: as above

binding | Molecule
binds | Full-length TBC-2, fusion to the B42 transcriptional activation domain (prey) (from UniProt Q23419)

These are yes or no findings as the source states them, for the method shown. Binding can be weak; no strength is given. For part of these data: Tags and fused reporters may be left off the sequences shown. For part of these data: Binding seen in cells or lysates may run through a third protein.
